Assay results as given in PMC12205368.

Sequences of proteins named here, by UniProt entry; tags and fusion partners are left off. Residues count along the entry.
UniProt Q04637, 748-993: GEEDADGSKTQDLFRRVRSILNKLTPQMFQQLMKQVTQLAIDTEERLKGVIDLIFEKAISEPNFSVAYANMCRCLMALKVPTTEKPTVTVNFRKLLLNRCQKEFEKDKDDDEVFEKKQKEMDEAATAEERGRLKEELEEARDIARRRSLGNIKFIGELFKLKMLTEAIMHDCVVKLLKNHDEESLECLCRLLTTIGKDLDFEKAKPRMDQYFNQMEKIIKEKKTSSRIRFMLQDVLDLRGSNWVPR

Target: eIF4G1-HEAT1 (UniProt Q04637)
Experiment: EMSA
Conditions: 5 mM Mg2+, 1 mM ATP, 10 mM sodium phosphate pH 7.5, 300 mM NaCl, 2 mM beta-mercaptoethanol, 5 mM MgCl2, 5% glycerol, room temperature, 15 min, 20% acrylamide gel, 0.5x TBE, recombinant protein

Row | Sequence | Kd (RNA version of d 5YEY, 5' phosphate not stated for the RNA, letters put together from the description) | Kd (5' phosphate, folded or branched DNA)
1 | GGGUUAGGGUUAGGGUUUGGG [r 5YEY] | 1310 nM | –
2 | GGTGGTGGTGGTTGTGGTGGTGGTGG [d AGRO100 (AS1411)] | – | 725 nM

For at least one entry, the source does not settle the construct or the ends of the probe.
